Values from PubChem BioAssay AID504744 (Drosophila RNAi Screening Center, 2011).
In all, the deposit lists about 23,000 reagents; below is an unselected part of those with a known target gene and a result. Over the whole deposit, 98 (0.43%) got an active call. 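Only hit calls are given; the phospho-dAkt signals, z-scores and hit direction were not deposited.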 A plus sign joins genes that one reagent is predicted to hit.

Aim: 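Identify dsRNAs that increase or decrease phospho-dAkt after insulin treatment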 (primary screen)
Cells: Drosophila Kc167 cells
Reagent: long dsRNA against Drosophila genes, 250 ng dsRNA per well of a 384-well plate
Time to read-out: 3 days of knock-down, then overnight serum-free starvation before stimulation
Conditions: bovine insulin at 387 nM for 10 minutes after 12 h without serum
Read-out: 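In-cell antibody fluorescence for phospho-dAkt in each well over DNA-dye signal, with log2 residuals expressed as z-scores adjusted for cell count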
Rule for the call: 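Hit in the insulin screen when the two-replicate mean z-score is more extreme than plus or minus 2.5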

The opening 18 entries, to show the layout:
gene knocked down	amplicon	Call
CG8379 (GeneID 41060)	DRSC16414	inactive
ash2 (GeneID 42936)	DRSC16902	inactive
Med (GeneID 43725)	DRSC16737	inactive
Lis-1 (GeneID 36791)	DRSC07459	active
Rad17 (GeneID 41779)	DRSC16811	inactive
tbc (GeneID 318059)	DRSC20540	inactive
CG10137 (GeneID 35241)	DRSC02014	inactive
CG10137 (GeneID 35241)	DRSC02015	inactive
CG4408 (GeneID 42762)	DRSC15574	inactive
meigo (GeneID 42510)	DRSC15877	inactive
jb (GeneID 33032)	DRSC20531	inactive
epsilonCOP (GeneID 33908)	DRSC02003	inactive
Dim1 (GeneID 33645)	DRSC00563	inactive
Or98b (GeneID 43375)	DRSC16775	inactive
Or98b (GeneID 43375)	DRSC21751	inactive
CG15036 (GeneID 50396)	DRSC17968	inactive
CG8036 (GeneID 41027)	DRSC16366	inactive
CG7208 (GeneID 42172)	DRSC16212	inactive

The list itself, from the first entry:
gene knocked down	amplicon	Call
CG8379 (GeneID 41060)	DRSC16414	inactive
ash2 (GeneID 42936)	DRSC16902	inactive
Med (GeneID 43725)	DRSC16737	inactive
Lis-1 (GeneID 36791)	DRSC07459	active
Rad17 (GeneID 41779)	DRSC16811	inactive
tbc (GeneID 318059)	DRSC20540	inactive
CG10137 (GeneID 35241)	DRSC02014	inactive
CG10137 (GeneID 35241)	DRSC02015	inactive
CG4408 (GeneID 42762)	DRSC15574	inactive
meigo (GeneID 42510)	DRSC15877	inactive
jb (GeneID 33032)	DRSC20531	inactive
epsilonCOP (GeneID 33908)	DRSC02003	inactive
Dim1 (GeneID 33645)	DRSC00563	inactive
Or98b (GeneID 43375)	DRSC16775	inactive
Or98b (GeneID 43375)	DRSC21751	inactive
CG15036 (GeneID 50396)	DRSC17968	inactive
CG8036 (GeneID 41027)	DRSC16366	inactive
CG7208 (GeneID 42172)	DRSC16212	inactive
ds (GeneID 33245)	DRSC00815	inactive
NimA (GeneID 318930)	DRSC01353	inactive
NimA (GeneID 318930)	DRSC22170	inactive
CG14913 (GeneID 34532)	DRSC02397	inactive
Nup107 (GeneID 34481)	DRSC01999	inactive
CG8441 (GeneID 36792)	DRSC07180	inactive
DUBAI + Tmem18	DRSC05344	inactive
dpr12 (GeneID 50320)	DRSC04814	inactive
dpr12 (GeneID 50320)	DRSC04863	inactive
dpr12 (GeneID 50320)	DRSC04892	inactive
Glt (GeneID 34193)	DRSC03333	inactive
Vha16-5 (GeneID 34482)	DRSC02986	inactive
Cth (GeneID 37143)	DRSC07422	inactive
Srg2 + CG42826	DRSC10681	inactive
Srg2 + CG42826	DRSC10682	inactive
CG17601 (GeneID 33143)	DRSC20639	inactive
Gr61a (GeneID 38098)	DRSC08358	inactive
disco-r (GeneID 64875)	DRSC20173	inactive
disco-r (GeneID 64875)	DRSC20174	inactive
aurB (GeneID 34504)	DRSC03548	inactive
Jon25Bii (GeneID 33707)	DRSC03114	inactive
Obp57a (GeneID 246670)	DRSC22047	inactive
CG18278 + CG30059	DRSC05418	inactive
tRNA:Leu-CAA-2-3 (GeneID 3772601)	DRSC13633	inactive
Brms1 (GeneID 32243)	DRSC19896	inactive
Cyp303a1 (GeneID 49165)	DRSC03300	inactive
Lhr (GeneID 36957)	DRSC06759	inactive
GstZ2 (GeneID 41133)	DRSC16479	inactive
tw (GeneID 31024)	DRSC18537	inactive
Nap1 (GeneID 37798)	DRSC04626	inactive
mir-210 (retired record) (GeneID 3771928)	DRSC19230	inactive
MED4 (GeneID 38799)	DRSC11014	inactive
CG7352 (GeneID 40997)	DRSC16233	inactive
CG33476 (GeneID 2768727)	DRSC22888	inactive
Reph (GeneID 47399)	DRSC00634	inactive
Reph (GeneID 47399)	DRSC22031	inactive
CG11899 (GeneID 46391)	DRSC16656	inactive
Prx1 (GeneID 39658)	DRSC10741	inactive
IP3K2 (GeneID 32285)	DRSC19500	inactive
IP3K2 (GeneID 32285)	DRSC19747	inactive
IP3K2 (GeneID 32285)	DRSC22614	inactive
CG12126 (GeneID 35805)	DRSC06103	inactive
GstE9 (GeneID 246581)	DRSC06679	inactive
Veneno (GeneID 41000)	DRSC16537	inactive
CG12128 (GeneID 36042)	DRSC06104	inactive
CG18539 (GeneID 37096)	DRSC06766	inactive
CG4972 (GeneID 34388)	DRSC02798	inactive
CG17019 (GeneID 36425)	DRSC06642	inactive
GatC + PolG2	DRSC03312	inactive
CtsB (GeneID 32341)	DRSC19361	inactive
PICK1 (GeneID 34677)	DRSC02936	inactive
Akt (GeneID 41957)	DRSC14108	active
MstProx + Mst84Da	DRSC12597	inactive
Schip1 (GeneID 34393)	DRSC02851	inactive
CG9171 (GeneID 33807)	DRSC03152	inactive
CG9171 (GeneID 33807)	DRSC21813	inactive
GATAd (GeneID 34395)	DRSC02803	inactive
CG3603 (GeneID 31289)	DRSC18317	inactive
VhaAC45RP (GeneID 318563)	DRSC15423	inactive
Ubi-p63E (GeneID 38456)	DRSC22016	inactive
lolal (GeneID 44703)	DRSC06948	inactive
CG11342 (GeneID 38538)	DRSC08175	inactive
GILT2 (GeneID 42788)	DRSC14196	inactive
eEF1beta (GeneID 45249)	DRSC07419	inactive
CG9294 (GeneID 37491)	DRSC04537	active
CG8564 (GeneID 38825)	DRSC10997	inactive
CG10307 (GeneID 37477)	DRSC04057	inactive
WRNexo (GeneID 42208)	DRSC16278	inactive
CG17598 (GeneID 33140)	DRSC20636	inactive
shps (GeneID 42892)	DRSC14614	inactive
CG31125 (GeneID 318599)	DRSC13684	inactive
CR31292 (GeneID 10178952)	DRSC13120	inactive
CG42843 (retired record) (GeneID 10178904)	DRSC01118	inactive
CG42843 (retired record) (GeneID 10178904)	DRSC02231	inactive
CG42843 (retired record) (GeneID 10178904)	DRSC02233	inactive
Snm1 (GeneID 40669)	DRSC12130	inactive
Adk3 (GeneID 44750)	DRSC05917	inactive
Obp19c (GeneID 33039)	DRSC20528	inactive
CG1924 (GeneID 32180)	DRSC19823	inactive
CG13946 (GeneID 50198)	DRSC00364	inactive
hlk (GeneID 46017)	DRSC05021	inactive
hlk (GeneID 46017)	DRSC05022	inactive
CG1847 (GeneID 32144)	DRSC19810	inactive
CG5446 (GeneID 34655)	DRSC02862	inactive
Lgr3 (GeneID 43098)	DRSC15704	inactive
Lgr3 (GeneID 43098)	DRSC15706	inactive
Nrx-1 (GeneID 42646)	DRSC16184	inactive
CG4230 (GeneID 33743)	DRSC02740	inactive
Alp2 (GeneID 37539)	DRSC04354	inactive
CG15021 (GeneID 38546)	DRSC08475	inactive
Cpr47Ed (GeneID 36192)	DRSC07331	inactive
CG14006 (GeneID 33802)	DRSC02338	inactive
CG9626 (GeneID 40979)	DRSC16525	inactive
CG15870 (GeneID 36446)	DRSC06588	inactive
Hel25E (GeneID 33781)	DRSC03342	inactive
Grl65a (GeneID 117342)	DRSC08837	inactive
CG17780 + CG17781	DRSC15266	inactive
Zdhhc8 (GeneID 31887)	DRSC18044	inactive
Zdhhc8 (GeneID 31887)	DRSC18122	inactive
CG42816 + CG42815	DRSC11230	inactive
CG6770 (GeneID 34621)	DRSC02992	inactive
CngA (GeneID 36806)	DRSC06580	inactive
CngA (GeneID 36806)	DRSC07362	inactive
Rm62 (GeneID 40739)	DRSC12365	inactive
CG15841 (retired record) + Acp33A	DRSC01859	inactive
slbo (GeneID 37889)	DRSC04716	inactive
CG8142 (GeneID 32763)	DRSC20086	inactive
gw (GeneID 43808)	DRSC17135	inactive
gw (GeneID 43808)	DRSC17160	inactive
Cc2d2a (GeneID 36982)	DRSC06750	inactive
qua (GeneID 35058)	DRSC03598	inactive
CG30177 (GeneID 246500)	DRSC22680	inactive
PGRP-SB2 (GeneID 39869)	DRSC11092	inactive
CG12769 (GeneID 35770)	DRSC06167	inactive
CG15255 (GeneID 34913)	DRSC01869	inactive
Sec15 (GeneID 42499)	DRSC16179	inactive
CG31121 (GeneID 42975)	DRSC15361	inactive
CG31121 (GeneID 42975)	DRSC15363	inactive
tna (GeneID 39217)	DRSC09053	inactive
tna (GeneID 39217)	DRSC10937	inactive
COX3 (retired record) (GeneID 192471)	DRSC21279	inactive
Shal (GeneID 40129)	DRSC09625	inactive
Shal (GeneID 40129)	DRSC11283	inactive
Ipk1 (GeneID 37360)	DRSC04235	inactive
Ipk1 (GeneID 37360)	DRSC04236	inactive
Ipk1 (GeneID 37360)	DRSC04237	inactive
Rnmt (GeneID 34877)	DRSC03558	inactive
Mcm10 (GeneID 35390)	DRSC03162	inactive
CG2233 (GeneID 31721)	DRSC18217	inactive
CG17528 (GeneID 3355134)	DRSC07761	inactive
Rh50 (GeneID 38589)	DRSC08692	inactive
CG33998 (GeneID 3885594)	DRSC05747	inactive
eIF3l (GeneID 39386)	DRSC10530	inactive
Ssadh (GeneID 43092)	DRSC15621	inactive
M6 (GeneID 40383)	DRSC11869	inactive
Syb (GeneID 36080)	DRSC07559	inactive
S-Lap7 (GeneID 36524)	DRSC06374	inactive
Gr43a (GeneID 35655)	DRSC06658	inactive
Bet3 (GeneID 39090)	DRSC10388	inactive
sxc (GeneID 35486)	DRSC04911	inactive
CG42355 (GeneID 317969)	DRSC07967	inactive
Lasp (GeneID 39864)	DRSC10379	inactive
trbd (GeneID 41179)	DRSC16494	inactive
ymp (GeneID 43088)	DRSC13720	inactive
ymp (GeneID 43088)	DRSC14482	inactive
ValRS-m (GeneID 39023)	DRSC10535	inactive
CoRest (GeneID 32941)	DRSC19881	inactive
CoRest (GeneID 32941)	DRSC21626	inactive
CoRest (GeneID 32941)	DRSC22305	inactive
l(3)73Ah (GeneID 48903)	DRSC11359	inactive
CG13998 (GeneID 50423)	DRSC02330	inactive
CG12853 (GeneID 50220)	DRSC06193	inactive
Pi3K59F (GeneID 37733)	DRSC04640	inactive
hb (GeneID 41032)	DRSC16963	inactive
btv (GeneID 35073)	DRSC01615	inactive
btv (GeneID 35073)	DRSC02449	inactive
Mes2 (GeneID 40514)	DRSC11593	inactive
Mes2 (GeneID 40514)	DRSC11632	inactive
Rtnl1 (GeneID 33721)	DRSC00851	inactive
Rtnl1 (GeneID 33721)	DRSC02684	active
Rtnl1 (GeneID 33721)	DRSC03122	inactive
Rtnl1 (GeneID 33721)	DRSC21698	inactive
Jhbp12 (GeneID 42924)	DRSC14621	inactive
mRpL45 (GeneID 42671)	DRSC16146	inactive
CR30029 (GeneID 5740197)	DRSC06724	inactive
CG2961 (GeneID 31954)	DRSC18246	inactive
Tbcd (GeneID 33389)	DRSC00273	inactive
Trx2 (GeneID 34281)	DRSC03622	inactive
Ugt37A2 (GeneID 41573)	DRSC15861	inactive
Sgp (GeneID 34188)	DRSC02195	inactive
CG7376 (GeneID 38715)	DRSC10829	inactive
elm (GeneID 40695)	DRSC12309	inactive
Syx18 (GeneID 42933)	DRSC14628	inactive
Plekhm1 (GeneID 37520)	DRSC04527	inactive
CG6180 (GeneID 34683)	DRSC02937	inactive
CR31824 (GeneID 10178848)	DRSC01517	inactive
RpL3 (GeneID 41347)	DRSC16834	inactive
CG42500 (GeneID 50032)	DRSC14822	inactive
CG42340 (GeneID 7354472)	DRSC17458	inactive
CG42340 (GeneID 7354472)	DRSC17841	inactive
CG42340 (GeneID 7354472)	DRSC18305	inactive
CG42340 (GeneID 7354472)	DRSC21619	inactive
